# Library screen at single concentrations

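Whole-cell growth test on Mycobacterium tuberculosis, read after 3 days in glucose-containing 7H9 medium; the read-out is not stated. Concentration: 50 µM. Direction is inferred from retests: higher values go with more growth inhibition. About 69,000 compounds were tested under these conditions; 1.1% (about 760) showed 50% or more at least once.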

The filed quantity is “Percent Effect” (%).
The controls that fix the scale are not given in the record; negative values are as filed.
Compounds were drawn at random from those tested, without regard to their results.
Two or more numbers in one place are separate tests of the same structure; such repeats can differ widely.

| # | Compound | percent effect |
|---|---|---|
| 1 | `COC(C)C(=O)NS(=O)(=O)c1ccc(F)c(C(F)(F)F)c1` (stereo unspecified) | -22.23% & 2.804% |
| 2 | `CN(c1ncnc2c1cnn2C)C1CCCN(c2cccnn2)C1` (stereo unspecified) | -0.5289% |
| 3 | `CCN(Cc1ccncc1)c1nc(C)nc2oc(C)nc12` | 1.619% |
| 4 | `Cc1noc(C)c1CN1CCn2cc(CNc3ccccn3)nc2C1.O=C(O)C(F)(F)F.O=C(O)C(F)(F)F` | 0.8426% |
| 5 | `O=C(O)c1ccnc(-c2ccnc(N3CCC(F)(F)CC3)n2)c1` | -34.48% |
| 6 | `Cc1nn(C)c(C)c1CN1CCN(CC2(O)CCCN(C)C2)CC1` (stereo unspecified) | 5.048% |
| 7 | `O=C(CC1CC1)N1CCc2ncc(Cn3cncn3)n2CC1.O=C(O)C(F)(F)F` | -12.14% |
| 8 | `Cc1cnc2n(c1=O)CC(C(=O)Nc1cccc3cccnc13)CS2` (stereo unspecified) | 3.069% & 19.21% |
| 9 | `Clc1ccccc1-c1nc(CNC2CCc3ncnn3C2)cs1` (stereo unspecified) | -30.19% |
| 10 | `O=C(Cc1ccc(F)cc1)NCC1CCN(Cc2ccsc2)CC1` | 9.761% |
| 11 | `CNC(=O)[C@@H](c1ccccc1OC)N1CCC[C@H]1C(=O)NC(C)(C)C.Cl` | -7.075% & -13.03% |
| 12 | `OCCN1CCN(CCOCC(F)(F)F)CC1` | -23.57% & -0.06635% |
| 13 | `CN(C)C(=O)Cn1cc(C(=O)NCCc2cccc(Cl)c2Cl)nn1` | 4.708% |
| 14 | `CS(=O)(=O)c1ccc(CNC[C@H]2COCc3nc4cccnc4n32)cc1` | -1.005% & -3.85% |
| 15 | `Cc1cncc(C2CCCN(C(=O)c3cnco3)C2)n1` (stereo unspecified) | 29.58% |
| 16 | `[H][C@@]12COC[C@]1(CNS(C)(=O)=O)CN(C(=O)Cc1ccccc1F)C2` | 0.805% |
| 17 | `COCC(=O)N1CCN(Cn2nc(C)c(Br)c2C)CC1` | 5.254% |
| 18 | `COCC1CC2(CCNCC2)CN1c1ncccn1` (stereo unspecified) | -10.54% & -5.697% |
| 19 | `Cc1ccnc(NC(=O)c2ccc(Cl)o2)c1` | 5.656% & 9.25% |
| 20 | `CCOc1cccc2c1OCC(C(=O)NS(=O)(=O)c1ccc(Br)s1)=C2` | 22.22% |
| 21 | `Cc1noc(C(C)C)c1C(=O)NCCN1CCOCC1` | 9.392% |
| 22 | `O=C1NC2(Cc3ccccc31)CN(CC1CCNC1)C2` (stereo unspecified) | 20.46% |
| 23 | `CCCNC(=O)c1nn(CC)cc1NC(=O)c1cn(C)nc1C` | -3.112% & -2.725% |
| 24 | `O=C(NCc1ccccc1CN1CCC(O)CC1)Nc1ccncc1` | -38.54% |
| 25 | `COCCn1cc(CC(=O)Nc2nc3c(s2)CCC3)c2ccccc21` | 20.44% |
| 26 | `COc1ccc2c(c1)CCN(CCC(=O)NC1CCCCC1)CC2` | -20.32% |
| 27 | `O=C(O)C(F)(F)F.O=S(=O)(C1CC1)N1CCC2(CC1)CN(Cc1nccs1)CCO2` | 13.01% & -6.477% |
| 28 | `CC(=O)c1cn(CC(=O)NC(C(=O)O)C(C)C)c2ccccc12` (stereo unspecified) | 3.712% |
| 29 | `Cc1nc(C(C)C)sc1C(C)N(C)C(=O)c1ccc(=O)n(C)n1` (stereo unspecified) | -19.48% |
| 30 | `Cc1ccccc1Oc1ncccc1CNS(=O)(=O)N(C)C` | 10.88% |
| 31 | `COc1cc(C(=O)N(Cc2cnn(C)c2)C(C)C)ccc1OC(C)C` | -6.377% |
| 32 | `COCCCNC(=O)Nc1cc(-c2ccccc2C)nn1CCO` | -36.22% |
| 33 | `O=C(NCC1(O)CCSC1)c1ccn(-c2ccccc2F)n1` (stereo unspecified) | 8.016% & 5.699% |
| 34 | `COCCN(C)C[C@@H]1CN(C(=O)c2ccc3c(c2)OCO3)C[C@@H]1CO` | -10.01% |
| 35 | `c1ccc(O[C@H]2COCCN(Cc3cccc4c3OCO4)C2)cc1` | 18.18% & 10.2% |
| 36 | `Cc1ccsc1CNc1ccccc1C(=O)N1CCNC(=O)C1` | 4.239% & -12.65% |
| 37 | `COc1ccc(-c2cccc(-c3ccn(CCN(C)C)n3)c2)nn1` | 26.76% & 35.01% |
| 38 | `CC(C(=O)NCc1ccnc(N2CCCC2)c1)n1cncn1` (stereo unspecified) | 1.115% |
| 39 | `CCc1ccc(S(=O)(=O)N2CC3(COC(C)(C)OC3)C2)s1` | 3.828% & 18.15% |
| 40 | `NC(=O)NC(=O)CCN1C(=O)CC(Cc2ccc(F)cc2)C1=O` (stereo unspecified) | -23.59% |
| 41 | `COCCN(Cc1ccccc1Cl)C(=O)c1c(C)cc(C)[nH]c1=O` | 11.71% |
| 42 | `CC(C)n1c(=O)nc2n1C(=O)N(c1ccccc1)C2` | -5.225% & 17.14% |
| 43 | `Cc1nn(-c2ccccc2Cl)c(C)c1CCC(=O)NCCS(C)(=O)=O` | -18.48% |
| 44 | `Fc1ccc2[nH]c3c(c2c1)CCN1C(c2ccncc2)N2CCC31CC2` (stereo unspecified) | 21.72% |
| 45 | `CN(C)c1cccc(C2CCCN2S(N)(=O)=O)c1` (stereo unspecified) | -18.41% |
| 46 | `CCOCc1cc(CN2CCn3c(CO)nnc3C2)ccc1OC.O=C(O)CC(O)(CC(=O)O)C(=O)O` | -8.552% |
| 47 | `CCOC(=O)c1ccc(NC(=O)c2c(O)nc3c(c2O)CCCC3)cc1` | 18.17% |
| 48 | `CC(NC1(CNC(=O)Cn2cccn2)CCOCC1)c1ccccc1` (stereo unspecified) | 19.77% |
| 49 | `CCN(CC)S(=O)(=O)c1ccc2c(c1)N(Cc1ccncc1)C(=O)CS2` | 1.553% |
| 50 | `O=C1CC2(CCSC2)C(=O)N1Cc1coc(-c2cccc(F)c2)n1` (stereo unspecified) | 19.98% |
| 51 | `O=C(c1ccnnc1)N1CCC2(CC1)CN(c1ccccn1)CCO2` | 13.86% |
| 52 | `Cn1cc(CNc2cnn(CC3CCCO3)c2)c(-c2ccncc2)n1` (stereo unspecified) | -20.36% |
| 53 | `CC(=O)N1CCC2(CC1)CN(C(=O)c1ccc3c(c1)OCCO3)C2` | 16.13% |
| 54 | `Cl.c1cc(CNCc2ccc(-n3cncn3)nc2)cc(OC2CCCC2)c1` | 49.48% |
| 55 | `CC(O)CN(Cc1cccc(C(N)=O)c1)c1ccccc1` (stereo unspecified) | -0.238% |

The first 4 entries again:

{"compound": "COC(C)C(=O)NS(=O)(=O)c1ccc(F)c(C(F)(F)F)c1", "stereo": "stereo unspecified", "percent effect": "-22.23 & 2.804"}
{"compound": "CN(c1ncnc2c1cnn2C)C1CCCN(c2cccnn2)C1", "stereo": "stereo unspecified", "percent effect": -0.5289}
{"compound": "CCN(Cc1ccncc1)c1nc(C)nc2oc(C)nc12", "percent effect": 1.619}
{"compound": "Cc1noc(C)c1CN1CCn2cc(CNc3ccccn3)nc2C1.O=C(O)C(F)(F)F.O=C(O)C(F)(F)F", "percent effect": 0.8426}

From ChEMBL document CHEMBL3988442, “University of Dundee, Small-Polar-MMV Screening Library” (2021).